This is one part of the list. The calls rarely recur for the same compound in another form.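 Kinases were expressed as nanoluciferase fusions in K562 cells and luminescence was read every 4 h between 2 and 18 h as percent of control, DMSO set to 100% and a positive control to 0%. A time point counts as decreased when the signal drops significantly (2 sigma). The hit call is the authors' own, does not follow from the count of time points alone, and its rule is not shown.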
Columns and labels:
Assay in all cases: number of time points (of 5) at which kinase-Nluc abundance scored as decreased, DMSO-normalised (count); higher = more persistent destabilization
Conditions in all cases: 10 µM; K562; 2-18 h
[1] = compound: CNC(=O)c1ccccc1Nc1cc(Nc2ccc(N3CCOCC3)cc2OC)ncc1C(F)(F)F
[2] = compound: CNc1ncc2cc(-c3ccc(-c4cccc(C)n4)cc3Cl)c(=O)n(C[C@H]3OC[C@H](N)CO3)c2n1 [G-5555 (hydrochloride)]
[3] = compound: CNc1ncc2cc(-c3ccc(-c4cccc(C)n4)cc3Cl)c(=O)n(C[C@H]3OC[C@H](N)CO3)c2n1
[4] = compound: COC(=O)[C@H](CC(C)C)NC(=O)c1ccc(NC[C@@H](N)CS)cc1-c1cccc2ccccc12 [GGTI298 (Trifluoroacetate)]
[5] = compound: COC(=O)[C@H](CC(C)C)NC(=O)c1ccc(NC[C@@H](N)CS)cc1-c1cccc2ccccc12
[6] = compound: COCCOc1cc(F)c2c(Nc3ccc(NC(=O)Cn4cc(C(C)C)nn4)cc3)ncnc2c1 [AZD3229 Tosylate]
[7] = compound: COCCOc1cc(F)c2c(Nc3ccc(NC(=O)Cn4cc(C(C)C)nn4)cc3)ncnc2c1
[8] = compound: COc1cc(/C=C/C(=O)O)ccc1O [Ferulic acid (sodium)]
[9] = compound: COc1cc(/C=C/C(=O)O)ccc1O [Ferulic acid]
[10] = compound: COc1cc2c(-c3cnn4cc(N5CCC(N6CCN(C)CC6)CC5)cnc34)ccnc2cc1F [ALK2-IN-4 (succinate)]

Protein sequences, listed by entry. Tags and fused reporters are not part of them. Lines headed by an entry give the natural chain unless they say otherwise; changes in a name come on top.
UniProt Q92630: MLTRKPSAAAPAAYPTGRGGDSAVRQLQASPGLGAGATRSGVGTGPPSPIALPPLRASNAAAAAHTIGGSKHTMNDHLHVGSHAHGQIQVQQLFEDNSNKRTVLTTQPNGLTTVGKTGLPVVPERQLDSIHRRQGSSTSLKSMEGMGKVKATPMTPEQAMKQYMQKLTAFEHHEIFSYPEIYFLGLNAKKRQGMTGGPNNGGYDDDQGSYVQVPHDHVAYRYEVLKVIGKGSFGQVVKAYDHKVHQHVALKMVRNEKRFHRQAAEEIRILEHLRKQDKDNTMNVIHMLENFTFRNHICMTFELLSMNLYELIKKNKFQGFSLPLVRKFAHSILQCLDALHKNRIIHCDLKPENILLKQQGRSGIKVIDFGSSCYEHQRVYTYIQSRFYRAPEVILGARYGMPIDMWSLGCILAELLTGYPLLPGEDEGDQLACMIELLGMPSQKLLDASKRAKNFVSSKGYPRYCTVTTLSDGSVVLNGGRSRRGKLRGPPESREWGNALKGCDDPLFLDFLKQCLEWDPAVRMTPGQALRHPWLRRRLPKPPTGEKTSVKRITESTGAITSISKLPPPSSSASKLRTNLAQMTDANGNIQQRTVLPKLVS
UniProt P53667: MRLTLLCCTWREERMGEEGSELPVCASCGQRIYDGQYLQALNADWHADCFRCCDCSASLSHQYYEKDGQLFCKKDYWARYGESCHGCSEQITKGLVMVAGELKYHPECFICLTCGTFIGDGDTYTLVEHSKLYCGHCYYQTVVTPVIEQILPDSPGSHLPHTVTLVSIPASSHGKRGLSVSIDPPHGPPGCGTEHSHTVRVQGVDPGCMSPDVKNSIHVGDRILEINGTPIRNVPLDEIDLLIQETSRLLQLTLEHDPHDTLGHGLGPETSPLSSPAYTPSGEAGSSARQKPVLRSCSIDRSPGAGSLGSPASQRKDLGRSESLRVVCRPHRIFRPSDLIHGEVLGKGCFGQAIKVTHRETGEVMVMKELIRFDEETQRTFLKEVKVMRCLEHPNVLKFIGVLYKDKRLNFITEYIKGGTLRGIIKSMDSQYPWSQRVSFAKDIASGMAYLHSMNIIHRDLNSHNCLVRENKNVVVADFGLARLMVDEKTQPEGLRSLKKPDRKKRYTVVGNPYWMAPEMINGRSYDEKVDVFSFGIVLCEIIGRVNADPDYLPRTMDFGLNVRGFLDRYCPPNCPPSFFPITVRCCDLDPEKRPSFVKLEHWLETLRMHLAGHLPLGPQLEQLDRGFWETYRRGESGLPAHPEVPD
UniProt P00519, whole entry: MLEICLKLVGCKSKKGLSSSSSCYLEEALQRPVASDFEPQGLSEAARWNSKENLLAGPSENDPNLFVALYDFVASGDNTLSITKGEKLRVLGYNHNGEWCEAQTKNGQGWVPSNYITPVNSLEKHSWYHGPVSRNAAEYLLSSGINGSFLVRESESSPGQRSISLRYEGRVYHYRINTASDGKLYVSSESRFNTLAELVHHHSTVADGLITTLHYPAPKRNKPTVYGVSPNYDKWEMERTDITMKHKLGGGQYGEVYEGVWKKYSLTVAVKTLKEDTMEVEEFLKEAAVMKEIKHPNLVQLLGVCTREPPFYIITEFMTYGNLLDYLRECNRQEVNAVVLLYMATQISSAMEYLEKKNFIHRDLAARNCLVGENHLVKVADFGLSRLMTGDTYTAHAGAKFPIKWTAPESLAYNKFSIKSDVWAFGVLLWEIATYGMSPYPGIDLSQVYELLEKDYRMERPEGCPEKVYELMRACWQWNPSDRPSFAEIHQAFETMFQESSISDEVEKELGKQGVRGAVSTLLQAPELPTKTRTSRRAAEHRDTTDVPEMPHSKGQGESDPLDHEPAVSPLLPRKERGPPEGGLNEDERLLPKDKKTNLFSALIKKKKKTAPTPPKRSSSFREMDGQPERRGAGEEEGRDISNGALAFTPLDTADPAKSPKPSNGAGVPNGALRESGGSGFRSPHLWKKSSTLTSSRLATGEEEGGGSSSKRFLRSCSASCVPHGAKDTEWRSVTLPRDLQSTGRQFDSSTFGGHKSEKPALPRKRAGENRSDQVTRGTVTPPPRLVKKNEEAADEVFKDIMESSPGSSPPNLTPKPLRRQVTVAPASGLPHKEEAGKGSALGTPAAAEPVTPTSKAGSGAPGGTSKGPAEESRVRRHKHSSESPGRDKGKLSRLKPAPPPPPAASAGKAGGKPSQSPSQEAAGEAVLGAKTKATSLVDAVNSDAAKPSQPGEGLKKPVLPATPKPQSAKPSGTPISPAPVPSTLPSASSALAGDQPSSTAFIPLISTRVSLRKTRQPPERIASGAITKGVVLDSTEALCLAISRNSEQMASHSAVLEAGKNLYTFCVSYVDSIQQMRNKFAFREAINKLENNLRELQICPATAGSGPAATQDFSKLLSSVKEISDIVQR
UniProt P41240: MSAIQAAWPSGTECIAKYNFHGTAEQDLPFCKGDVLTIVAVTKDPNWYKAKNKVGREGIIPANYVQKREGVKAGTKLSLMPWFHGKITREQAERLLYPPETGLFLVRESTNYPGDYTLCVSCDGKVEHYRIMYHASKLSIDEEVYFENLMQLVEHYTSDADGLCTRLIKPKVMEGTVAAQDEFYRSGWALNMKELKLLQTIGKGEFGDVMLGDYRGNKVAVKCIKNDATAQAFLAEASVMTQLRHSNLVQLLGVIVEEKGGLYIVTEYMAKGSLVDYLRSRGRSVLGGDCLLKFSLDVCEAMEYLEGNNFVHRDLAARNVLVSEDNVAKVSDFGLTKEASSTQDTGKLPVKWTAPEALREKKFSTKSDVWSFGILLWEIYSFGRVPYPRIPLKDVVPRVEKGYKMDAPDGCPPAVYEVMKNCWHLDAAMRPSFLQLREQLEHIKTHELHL
UniProt Q15303, whole entry R711C: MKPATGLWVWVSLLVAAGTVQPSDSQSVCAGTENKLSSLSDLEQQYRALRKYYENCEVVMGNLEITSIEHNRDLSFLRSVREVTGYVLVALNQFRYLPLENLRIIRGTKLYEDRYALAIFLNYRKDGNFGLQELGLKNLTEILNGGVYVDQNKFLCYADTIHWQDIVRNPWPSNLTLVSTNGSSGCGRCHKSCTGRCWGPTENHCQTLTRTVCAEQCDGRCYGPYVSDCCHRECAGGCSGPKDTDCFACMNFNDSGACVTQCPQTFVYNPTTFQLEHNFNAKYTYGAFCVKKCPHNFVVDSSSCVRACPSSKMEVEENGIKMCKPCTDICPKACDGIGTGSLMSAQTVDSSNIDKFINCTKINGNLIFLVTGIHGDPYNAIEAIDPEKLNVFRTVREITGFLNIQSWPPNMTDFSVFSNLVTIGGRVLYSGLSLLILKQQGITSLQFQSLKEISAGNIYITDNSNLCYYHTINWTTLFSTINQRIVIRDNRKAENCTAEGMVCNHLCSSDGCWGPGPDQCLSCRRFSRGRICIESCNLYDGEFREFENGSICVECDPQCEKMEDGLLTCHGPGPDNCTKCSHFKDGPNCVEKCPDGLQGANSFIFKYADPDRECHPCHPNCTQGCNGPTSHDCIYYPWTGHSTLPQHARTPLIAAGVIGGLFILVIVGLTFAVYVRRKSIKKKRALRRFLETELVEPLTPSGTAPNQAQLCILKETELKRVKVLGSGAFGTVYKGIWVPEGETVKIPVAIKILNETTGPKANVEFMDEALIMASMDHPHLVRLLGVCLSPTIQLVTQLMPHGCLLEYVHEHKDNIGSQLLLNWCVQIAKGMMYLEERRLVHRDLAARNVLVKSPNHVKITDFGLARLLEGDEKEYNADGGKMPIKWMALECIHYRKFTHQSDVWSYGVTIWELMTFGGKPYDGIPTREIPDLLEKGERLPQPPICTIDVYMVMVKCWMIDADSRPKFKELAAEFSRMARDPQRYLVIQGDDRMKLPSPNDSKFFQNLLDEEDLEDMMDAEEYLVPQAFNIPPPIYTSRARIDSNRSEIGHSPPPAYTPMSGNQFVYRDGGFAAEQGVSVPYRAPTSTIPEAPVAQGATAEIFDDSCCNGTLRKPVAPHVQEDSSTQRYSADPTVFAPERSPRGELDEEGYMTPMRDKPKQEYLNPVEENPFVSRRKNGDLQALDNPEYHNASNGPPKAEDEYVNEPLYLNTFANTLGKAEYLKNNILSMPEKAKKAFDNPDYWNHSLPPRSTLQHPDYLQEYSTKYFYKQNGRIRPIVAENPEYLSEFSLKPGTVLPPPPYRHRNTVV
UniProt Q9UM73: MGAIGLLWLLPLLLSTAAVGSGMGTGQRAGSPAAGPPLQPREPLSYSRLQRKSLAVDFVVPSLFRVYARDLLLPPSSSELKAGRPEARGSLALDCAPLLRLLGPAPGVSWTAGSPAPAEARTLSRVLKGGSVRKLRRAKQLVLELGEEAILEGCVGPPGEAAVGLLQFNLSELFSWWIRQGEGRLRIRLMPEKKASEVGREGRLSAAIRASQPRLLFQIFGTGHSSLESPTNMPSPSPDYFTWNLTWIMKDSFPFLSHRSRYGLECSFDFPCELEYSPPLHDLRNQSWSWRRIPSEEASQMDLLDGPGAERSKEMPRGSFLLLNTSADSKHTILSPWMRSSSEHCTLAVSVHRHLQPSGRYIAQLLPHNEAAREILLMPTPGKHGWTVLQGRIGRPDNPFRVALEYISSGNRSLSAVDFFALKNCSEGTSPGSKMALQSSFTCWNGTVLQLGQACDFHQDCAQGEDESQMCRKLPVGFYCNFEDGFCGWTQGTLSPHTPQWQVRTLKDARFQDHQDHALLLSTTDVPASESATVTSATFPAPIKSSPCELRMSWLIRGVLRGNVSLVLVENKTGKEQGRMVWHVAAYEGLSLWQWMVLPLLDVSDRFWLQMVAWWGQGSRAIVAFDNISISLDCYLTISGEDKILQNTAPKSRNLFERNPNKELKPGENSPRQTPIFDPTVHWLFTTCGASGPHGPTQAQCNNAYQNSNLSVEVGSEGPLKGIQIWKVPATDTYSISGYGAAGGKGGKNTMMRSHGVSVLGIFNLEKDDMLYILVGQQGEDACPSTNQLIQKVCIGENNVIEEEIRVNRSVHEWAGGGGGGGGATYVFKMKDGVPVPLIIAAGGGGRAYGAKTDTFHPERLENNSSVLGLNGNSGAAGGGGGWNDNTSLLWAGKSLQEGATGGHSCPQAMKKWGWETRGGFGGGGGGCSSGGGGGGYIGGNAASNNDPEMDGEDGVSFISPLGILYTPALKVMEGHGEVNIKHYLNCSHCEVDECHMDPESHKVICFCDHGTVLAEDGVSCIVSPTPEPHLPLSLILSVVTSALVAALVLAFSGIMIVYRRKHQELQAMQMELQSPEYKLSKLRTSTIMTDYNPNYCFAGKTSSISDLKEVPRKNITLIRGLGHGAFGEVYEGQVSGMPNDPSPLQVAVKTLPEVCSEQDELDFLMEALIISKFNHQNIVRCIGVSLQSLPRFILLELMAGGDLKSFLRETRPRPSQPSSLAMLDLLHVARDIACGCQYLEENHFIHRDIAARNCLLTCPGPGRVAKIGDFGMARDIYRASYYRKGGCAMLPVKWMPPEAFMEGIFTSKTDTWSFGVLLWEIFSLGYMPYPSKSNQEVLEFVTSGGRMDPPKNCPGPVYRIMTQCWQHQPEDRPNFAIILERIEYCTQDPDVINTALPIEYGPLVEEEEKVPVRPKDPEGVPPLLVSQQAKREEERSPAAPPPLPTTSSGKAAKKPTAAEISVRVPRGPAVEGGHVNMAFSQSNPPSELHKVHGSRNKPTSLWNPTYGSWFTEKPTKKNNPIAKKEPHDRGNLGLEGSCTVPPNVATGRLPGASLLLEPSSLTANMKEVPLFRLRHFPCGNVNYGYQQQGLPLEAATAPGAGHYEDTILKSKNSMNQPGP
UniProt P53350, whole entry: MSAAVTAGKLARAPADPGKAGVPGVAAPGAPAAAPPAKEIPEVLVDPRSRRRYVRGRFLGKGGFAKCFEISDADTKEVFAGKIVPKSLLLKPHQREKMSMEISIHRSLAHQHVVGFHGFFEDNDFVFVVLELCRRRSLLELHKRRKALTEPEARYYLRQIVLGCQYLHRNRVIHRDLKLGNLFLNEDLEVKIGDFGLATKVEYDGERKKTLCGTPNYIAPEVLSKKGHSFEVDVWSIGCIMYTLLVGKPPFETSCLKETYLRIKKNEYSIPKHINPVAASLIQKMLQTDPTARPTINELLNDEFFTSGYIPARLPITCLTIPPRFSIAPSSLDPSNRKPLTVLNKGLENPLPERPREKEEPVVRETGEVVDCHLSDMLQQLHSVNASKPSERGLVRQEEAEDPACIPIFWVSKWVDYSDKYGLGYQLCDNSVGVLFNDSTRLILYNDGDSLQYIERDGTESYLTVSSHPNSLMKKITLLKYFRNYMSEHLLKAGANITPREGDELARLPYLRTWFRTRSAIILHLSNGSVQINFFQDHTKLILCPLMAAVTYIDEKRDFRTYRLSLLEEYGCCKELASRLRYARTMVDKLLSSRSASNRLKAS

Measured: number of time points

FGR (UniProt P09769)
0: all assays above

CDK10 (UniProt Q15131)
0: all assays above

BRAF_V600E
0: all assays above

SPHK1 (UniProt Q9NYA1)
0: all assays above

DYRK2 (UniProt Q92630)
4: [2]
1: [6]
0: all other assays above

EGFR_L718V (UniProt P00533)
0: all assays above

EGFR_L861Q (UniProt P00533)
0: all assays above

DDR1 (UniProt Q08345)
0: all assays above

LYN (UniProt P07948)
2: [2]
0: all other assays above

ROR2 (UniProt Q01974)
0: all assays above

ULK3 (UniProt Q6PHR2)
3: [2]
0: all other assays above

JAK1 (UniProt P23458)
0: all assays above

CAMK2A (UniProt Q9UQM7)
0: all assays above

PRKCA (UniProt P17252)
0: all assays above

YES1 (UniProt P07947)
0: all assays above

Retrieved one by one from the list above, four records:
PRKCA (UniProt P17252)
0: all assays above

CAMK2A (UniProt Q9UQM7)
0: all assays above

ULK3 (UniProt Q6PHR2)
3: [2]
0: all other assays above

ROR2 (UniProt Q01974)
0: all assays above

The list goes on.

AURKB (UniProt Q96GD4)
0: all assays above

PDK1 (UniProt Q15118)
0: all assays above

LIMK1 (UniProt P53667)
0: all assays above

BMX (UniProt P51813)
0: all assays above

EGFR_G719S (UniProt P00533)
0: all assays above

EGFR_L858R (UniProt P00533)
0: all assays above

ZAP70 (UniProt P43403)
0: all assays above

CSNK1A1 (UniProt P48729)
0: all assays above

CSNK1D (UniProt P48730)
0: all assays above

PRKAA1 (UniProt Q13131)
0: all assays above

ABL1 (UniProt P00519)
1: [2]
4: [3]
0: all other assays above

ARAF (UniProt P10398)
0: all assays above

CSK (UniProt P41240)
0: all assays above

BTK (UniProt Q06187)
0: all assays above

FLT3 (UniProt P36888)
0: all assays above

SYK (UniProt P43405)
0: all assays above

PDPK1 (UniProt O15530)
2: [2]
0: all other assays above

EGFR_G719S_T790M (UniProt P00533)
0: all assays above

EGFR_T790M (UniProt P00533)
0: all assays above

CHEK2 (UniProt O96017)
0: all assays above

FGFR3 (UniProt P22607)
0: all assays above

RET (UniProt P07949)
0: all assays above

GSK3A (UniProt P49840)
0: all assays above

MAP4K2 (UniProt Q12851)
0: all assays above

RAF1 (UniProt P04049)
0: all assays above

RAF1_S257L (clone: RAF1_mut) (UniProt P04049)
0: all assays above

SRC (UniProt P12931)
0: all assays above

RET_M918T (clone: RET_mut) (UniProt P07949)
0: all assays above

LCK (UniProt P06239)
0: all assays above

PIK4CB (UniProt Q9UBF8)
0: all assays above

MAP2K2 (UniProt P36507)
0: all assays above

LIMK2 (UniProt P53671)
0: all assays above

MAPKAPK2 (UniProt P49137)
0: all assays above

INSRR (UniProt P14616)
1: [2]
0: all other assays above

RPS6KA1 (UniProt Q15418)
0: all assays above

NTRK3 (UniProt Q16288)
0: all assays above

FGFR1 (UniProt P11362)
0: all assays above

FYN (UniProt P06241)
1: [3]
3: [2]
0: all other assays above

TEC (UniProt P42680)
0: all assays above

ERBB3 (UniProt P21860)
1: [6]
0: all other assays above

LMTK2 (UniProt Q8IWU2)
0: all assays above

BRAF (UniProt P15056)
0: all assays above

DYRK1B (UniProt Q9Y463)
0: all assays above

ERBB4_R711C (clone: ERBB4_mut) (UniProt Q15303)
2: [1] | [6]
0: all other assays above

PBK (UniProt Q96KB5)
0: all assays above

ERN1 (UniProt O75460)
0: all assays above

FGFR2 (UniProt P21802)
0: all assays above

RIPK1 (UniProt Q13546)
0: all assays above

ALK (UniProt Q9UM73)
0: all assays above

PIK4CA (UniProt P42356)
0: all assays above

AKT1 (UniProt P31749)
0: all assays above

CDK3 (UniProt Q00526)
0: all assays above

CSF1R (UniProt P07333)
0: all assays above

BLK (UniProt P51451)
0: all assays above

HER2 (UniProt P04626)
0: all assays above

TYK2 (UniProt P29597)
0: all assays above

CDK2 (UniProt P24941)
0: all assays above

PLK1 (UniProt P53350)
0: all assays above

ZAK (UniProt Q9NYL2)
0: all assays above

PAK4 (UniProt O96013)
0: all assays above

MAP2K1 (UniProt Q02750)
0: all assays above

NTRK2 (UniProt Q16620)
0: all assays above

EGFR (UniProt P00533)
0: all assays above

IRAK3 (UniProt Q9Y616)
0: all assays above

PTK2B (UniProt Q14289)
0: all assays above

MKNK1 (UniProt Q9BUB5)
2: [2]
0: all other assays above

MAPK4 (UniProt P31152)
0: all assays above

AURKC (UniProt Q9UQB9)
0: all assays above

PDGFRB (UniProt P09619)
4: [7]
0: all other assays above

STK24 (UniProt Q9Y6E0)
0: all assays above

CAMK2G (UniProt Q13555)
0: all assays above

MAPK1 (UniProt P28482)
0: all assays above

AURKA (UniProt O14965)
0: all assays above

PTK2 (UniProt Q05397)
0: all assays above

RIPK2 (UniProt O43353)
4: [10]
0: all other assays above

RIOK1 (UniProt Q9BRS2)
0: all assays above

CDK6 (UniProt Q00534)
0: all assays above

STK38 (UniProt Q15208)
0: all assays above

EPHA2 (UniProt P29317)
0: all assays above

CDK5 (UniProt Q00535)
0: all assays above

— the supplement of paper PMC12823440, “Inhibitors supercharge kinase turnover through native proteolytic circuits” (Nature, 2025)
